Experimental data as given in PubChem BioAssay AID1671190 (National Center for Advancing Translational Sciences (NCATS), 2021).
In all, about 580,000 compounds went through this assay and about 6,100 (1.1%) were called active. The inconclusive results got no clear call from the source; some entries with a clear call stand among them for comparison. Calls follow the shape of the dose curve; as a rule, active = well fitted inhibition curve with a large enough effect; inconclusive = small, poorly fitted or top-dose-only effect, or another doubt; inactive = no such curve, though single readings can be large or run the other way. Potencies of inconclusive entries are doubtful fits and often do not repeat.

Protein sequences, listed by entry. Tags and fused reporters are not part of them. Lines headed by an entry give the natural chain unless they say otherwise; changes in a name come on top.
UniProt P18054: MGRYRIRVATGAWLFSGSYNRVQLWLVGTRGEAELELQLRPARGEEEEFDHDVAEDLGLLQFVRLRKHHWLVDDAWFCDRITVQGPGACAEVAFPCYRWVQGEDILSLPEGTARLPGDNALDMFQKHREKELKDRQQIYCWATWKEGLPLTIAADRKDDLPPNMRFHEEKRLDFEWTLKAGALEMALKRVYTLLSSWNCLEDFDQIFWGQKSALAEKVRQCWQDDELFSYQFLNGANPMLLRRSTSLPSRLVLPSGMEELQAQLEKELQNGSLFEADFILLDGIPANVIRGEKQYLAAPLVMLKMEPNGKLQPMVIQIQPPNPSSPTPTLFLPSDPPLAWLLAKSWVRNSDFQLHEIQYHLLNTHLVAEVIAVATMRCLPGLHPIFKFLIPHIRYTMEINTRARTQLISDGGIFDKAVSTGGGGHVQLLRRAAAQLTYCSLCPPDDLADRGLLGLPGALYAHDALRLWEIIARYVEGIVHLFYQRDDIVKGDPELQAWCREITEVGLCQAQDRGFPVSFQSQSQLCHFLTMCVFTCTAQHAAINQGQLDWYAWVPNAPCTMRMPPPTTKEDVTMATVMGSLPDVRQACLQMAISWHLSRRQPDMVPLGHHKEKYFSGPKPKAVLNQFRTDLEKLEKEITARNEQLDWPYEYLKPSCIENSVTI

Molecular target: Polyunsaturated fatty acid lipoxygenase ALOX12 (Homo sapiens) (UniProt P18054)
Assay: Primary qHTS assay for inhibitors of human arachidonate 12S-lipoxygenase (ALOX12): Round 2
Details: purified 12hLO, xylenol orange hydroperoxide absorbance; activity change, negative = inhibition: at 108 µM (top of the series) unless noted
Outline: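 Hydroperoxide product was detected by ferrous iron/xylenol orange as the 573 to 405 nm absorbance ratio. Arachidonic acid at 40 uM (final) was turned over for 30 min at room temperature by 150 nM human 12hLO, pH 7.0 Hepes buffer, after 15 min compound preincubation.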
% is scaled to controls: 0 for no effect and ±100 for the full control effect; potency is read from the fitted curve at half-maximal effect.

Compound	Potency	activity change, negative = inhibition
COc1ccc(CCn2nnnc2C(c2ccc(C)cc2)N2CCN(C)CC2)cc1OC (stereo unspecified)	inconclusive: 39.8 µM [inhibitor, partial curve, poor fit]	–
O=C(NCCc1ccccc1)c1cncc(Br)c1	inconclusive: 44.7 µM [inhibitor, single point]	–
Cc1ccc(S(=O)(=O)c2nc(-c3ccco3)oc2SCc2ccccc2Cl)cc1	inconclusive: 56.2 µM [inhibitor, partial curve, poor fit]	–
Cn1cnnc1SCc1ccc(-c2ccc(Br)cc2)o1	inconclusive: 89.1 µM [inhibitor, partial curve, poor fit]	–
CCOC(=O)c1c(NC(=O)c2ccc(S(=O)(=O)N3CCCC(C)C3)cc2)sc2c1CCN(C(C)C)C2 (stereo unspecified)	–	inactive: -18.9%
Cc1c(Nc2cc(Cl)c3nonc3c2[N+](=O)[O-])c(=O)n(-c2ccccc2)n1C	inconclusive: 112 µM [inhibitor, partial curve, poor fit]	–
CN(C)S(=O)(=O)c1cccc(NC(=S)NC(=O)c2ccco2)c1	inconclusive: 44.7 µM [inhibitor, partial curve, poor fit]	–
CCNC(=O)N(CC)C[C@H]1N[C@@](Cc2ccccc2)(C(=O)OC)[C@H]2C(=O)N(C)C(=O)[C@@H]12	inconclusive: 7.08 µM [inhibitor, full curve]	–
CCOC(=O)c1cc(-c2ccccc2)n(-c2cccc(C(=O)N(CC)c3ccccc3)c2)c1C	inconclusive: 126 µM [inhibitor, partial curve, poor fit]	–
CCOc1ccc(CNC(=S)Nc2ccccc2)cc1Cl	inconclusive: 56.2 µM [inhibitor, partial curve, poor fit]	–
ON1C(c2ccccc2C(F)(F)F)N(O)[C@H]2CCCC[C@H]21 (stereo partly specified)	inconclusive: 70.8 µM [inhibitor, partial curve, poor fit]	–
CCOC(=O)C1=C(CC)OC(N)=C(C#N)C1c1ccc(F)cc1F (stereo unspecified)	inconclusive: 50.1 µM [inhibitor, partial curve, poor fit]	–
CC(=O)Nc1c(C(=O)Nc2ccc3c(c2)OCO3)oc2ccccc12	–	inactive: 4.35%
CCOc1ccc(Br)cc1CSC(=N)N	inconclusive: 89.1 µM [inhibitor, partial curve, poor fit]	–
CN(C(=O)CN1C(=O)S/C(=C\c2ccc(F)cc2)C1=O)C1CCS(=O)(=O)C1 (stereo unspecified)	–	inactive: 10.2%
O=C(c1c[nH]c2ccccc12)C(NCc1ccccc1)c1ccccc1 (stereo unspecified)	–	inactive: 15.1%
Cc1ccc2c(=O)n3c(nc2c1)C(CC(C)C)NC(=O)c1ccc(Cl)cc1-3 (stereo unspecified)	inconclusive: 15.8 µM [inhibitor, partial curve]	–
C/C(=N\NC(=S)NC(C)C)c1ccc(-n2ccnc2)cc1	inconclusive: 6.31 µM [inhibitor, partial curve, poor fit]	–
COc1ccc(NS(=O)(=O)c2ccc3[nH]c(=O)[nH]c3c2)cc1	inconclusive: 89.1 µM [inhibitor, single point]	–
Cc1ccccc1N/N=C/c1ccc(N2CCOCC2)cc1	active: 7.08 µM	–
NS(=O)(=O)c1cccc(NC(=O)CC(NC(=O)c2ccccc2Cl)c2ccccc2)c1 (stereo unspecified)	inconclusive: 126 µM [inhibitor, single point]	–

Two compounds picked at random from the list so far:
Compound	Potency	activity change, negative = inhibition
O=C(NCCc1ccccc1)c1cncc(Br)c1	inconclusive: 44.7 µM [inhibitor, single point]	–
CCOc1ccc(Br)cc1CSC(=N)N	inconclusive: 89.1 µM [inhibitor, partial curve, poor fit]	–

Next part

Compound	Potency	activity change, negative = inhibition
Cc1ccc2nsnc2c1S(=O)(=O)O	inconclusive: 50.1 µM [inhibitor, partial curve, poor fit]	–
O=C(O)C(F)(F)S(=O)(=O)O	inconclusive: 39.8 µM [inhibitor, partial curve, poor fit]	–
COC(=O)[C@@H]1C[C@H](NC(=O)c2cccc(-n3nnnc3C)c2)CN1C	inconclusive: 35.5 µM [inhibitor, partial curve, poor fit]	–
CCN1C(=O)CCC2(C(=O)NCC3CC3)CCCC=C12 (stereo unspecified)	–	inactive: 21.3%
O=[N+]([O-])c1nn(-c2ccc(Cl)cc2)n(O)c1=NCc1ccncc1	–	inactive: -13%
CCC(C)[C@H]1CNC(=S)N1CCC12CC3CC(CC(C3)C1)C2 (stereo partly specified)	inconclusive: 44.7 µM [inhibitor, partial curve, poor fit]	–
CCC1=C[C@@H]2CN(C1)Cc1c([nH]c3ccccc13)[C@@](C(=O)OC)(c1cc3c(cc1OC)N(C)[C@@H]1[C@@](O)(C(=O)OC)[C@H](OC(C)=O)[C@]4(CC)C=CCN5CC[C@]31[C@@H]54)C2	active: 4.32 µM	–
O[C@@H]1C[C@@H](c2nnc3n2CCN(CC2CC2)C3)N(Cc2cccnc2)C1	–	inactive: 52.6%
CCCSc1ccc([C@@H]2[C@H]3C(=O)N(CC)C(=O)[C@H]3[C@]3(C(=O)OC)CCCN23)cc1	inconclusive: 44.7 µM [inhibitor, partial curve]	–
Cc1cc(C)n2nc(CC(=O)NNC(=O)c3ccccc3Cl)nc2n1	–	inactive: 12.9%
Cn1ncc(N2CCN(CC3(O)CNCCOC3)CC2)cc1=O (stereo unspecified)	inconclusive: 15.8 µM [inhibitor, single point]	–
CS(=O)(=O)Nc1cccc(-c2cncnc2NCc2ccccc2)c1	active: 39.8 µM	–
CCn1c(SCC(=O)c2ccc(C#N)cc2)nnc1-c1ccccc1C	inconclusive: 44.7 µM [inhibitor, single point]	–
CCOC(=O)C(C(C)=O)=C1SCCS1	–	inactive: -1.75%
CC1(C)C(=O)N(Cc2ccc(O)cc2)[C@H]2CN(CCCc3ccccc3)C[C@H]2[S+]1(=O)[O-]	inconclusive: 100 µM [inhibitor, partial curve, poor fit]	–
O=C(Nc1nnc(-c2cccnc2)o1)c1cccc(Cl)c1	–	inactive: 0.318%
Brc1ccc(-c2noc(-c3ccncc3)n2)cc1	inconclusive: 112 µM [inhibitor, partial curve, poor fit]	–
CN(CC(=O)Nc1cccc(F)c1)C(=O)c1ccc(-c2ccc(Cl)cc2)o1	inconclusive: 44.7 µM [inhibitor, partial curve, poor fit]	–
Cc1nn(C(=O)C2CCCN2S(=O)(=O)c2ccc(F)cc2)c(C)c1Sc1ccccc1 (stereo unspecified)	–	inactive: 6.17%
C/C(N)=N\S(=O)(=O)c1ccc(Cl)cc1	inconclusive: 100 µM [inhibitor, partial curve, poor fit]	–
